Measurements reported in PubChem BioAssay AID1259405 (NCATS, 2018)
The deposit covers about 50,000 reagents; shown is a part drawn at random. In the full data, about 4,000 (8%) were called active. 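Mouse siRNA library applied to hamster cells; one well for each siRNA.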 A number with no mark means an inactive call. Reagents against one gene are numbered here.

- Screen: 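Knock-downs that lift recombinant protein yield in hamster ovary cells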 (primary screen)
- Cell system: Chinese hamster CHO-K1 ovary cells with stable secreted eGFP expression
- Reagent: single siRNA against mouse genes, 0.8 pmol siRNA per well (2 µl of 400 nM stock)
- Time to read-out: 3 days
- Read-out: 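Per-well intracellular GFP measured by laser scanning cytometry, plus viability from ATP luminescence, each relative to plate median of non-targeting control wells, in %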
- Reading the numbers: GFP, % of control: higher = more GFP per well, higher productivity; viability (ATP), % of control: higher = more viable cells (more ATP)
- Call rule: 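Called active when intracellular GFP, relative to negative control, is at or above 120%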

gene symbol | reagent | GFP, % of control | viability (ATP), % of control
En2 | 1 | 65.5 | 62.7
En2 | 2 | 120 | 103
En2 | 3 | 50.5 | 50.3
Or1af1 | 1 | 51.7 | 47
Or1af1 | 2 | 60.8 | 69.6
Or1af1 | 3 | 53.9 | 39.2
Ddx51 | 1 | 89.2 | 78.1
Ddx51 | 2 | 77 | 67.7
Ddx51 | 3 | 35.1 | 91.1
Ndufs8 | 1 | 74.4 | 67.4
Ndufs8 | 2 | 86.5 | 69
Ndufs8 | 3 | 89.4 | 81.6
Khnyn | 1 | 92.1 | 98.8
Khnyn | 2 | 101 | 83.6
Khnyn | 3 | 159 (active) | 147
Khnyn | 4 | 57.4 | 82
Khnyn | 5 | 87.8 | 83.1
Khnyn | 6 | 92.3 | 89.4
Dnajc2 | 1 | 84.6 | 71.2
Dnajc2 | 2 | 104 | 86.4
Dnajc2 | 3 | 76.6 | 68.1
Hat1 | 1 | 49.3 | 52.3
Hat1 | 2 | 99.5 | 85.2
Hat1 | 3 | 60.9 | 43.7
Camk2d | 1 | 88.2 | 78.3
Ighg3 | 1 | 40.9 | 60.4
Ighg3 | 2 | 61.4 | 35.6
Ighg3 | 3 | 116 | 56.5
Or8d2 | 1 | 80.2 | 27
Or8d2 | 2 | 71 | 85.8
Or8d2 | 3 | 88.7 | 69.7
Zfp750 | 1 | 60.7 | 71.5
Zfp750 | 2 | 35.9 | 24.8
Zfp750 | 3 | 88.1 | 78.9

As entered above.
For “viability (ATP), % of control”, Or8d2 #2 has 85.8
Hat1 #2, viability (ATP), % of control: 85.2
Result of Or1af1 #2 under “GFP, % of control”: 60.8
Ddx51 #1, viability (ATP), % of control → 78.1
For “viability (ATP), % of control”, Ighg3 #1 reads 60.4
